Assay results published in the supplement of paper PMC6411743.
± gives the standard deviation of the averaged measurements. The list shows a part of the results, in another mix than the full data. Most entries show no effect beyond the scatter of the controls.

The chains behind the UniProt entries cited, without tags or fusion partners. Where a name states a change or a piece, a line headed by the entry shows the natural chain unless it says otherwise.
UniProt Q8TBC3: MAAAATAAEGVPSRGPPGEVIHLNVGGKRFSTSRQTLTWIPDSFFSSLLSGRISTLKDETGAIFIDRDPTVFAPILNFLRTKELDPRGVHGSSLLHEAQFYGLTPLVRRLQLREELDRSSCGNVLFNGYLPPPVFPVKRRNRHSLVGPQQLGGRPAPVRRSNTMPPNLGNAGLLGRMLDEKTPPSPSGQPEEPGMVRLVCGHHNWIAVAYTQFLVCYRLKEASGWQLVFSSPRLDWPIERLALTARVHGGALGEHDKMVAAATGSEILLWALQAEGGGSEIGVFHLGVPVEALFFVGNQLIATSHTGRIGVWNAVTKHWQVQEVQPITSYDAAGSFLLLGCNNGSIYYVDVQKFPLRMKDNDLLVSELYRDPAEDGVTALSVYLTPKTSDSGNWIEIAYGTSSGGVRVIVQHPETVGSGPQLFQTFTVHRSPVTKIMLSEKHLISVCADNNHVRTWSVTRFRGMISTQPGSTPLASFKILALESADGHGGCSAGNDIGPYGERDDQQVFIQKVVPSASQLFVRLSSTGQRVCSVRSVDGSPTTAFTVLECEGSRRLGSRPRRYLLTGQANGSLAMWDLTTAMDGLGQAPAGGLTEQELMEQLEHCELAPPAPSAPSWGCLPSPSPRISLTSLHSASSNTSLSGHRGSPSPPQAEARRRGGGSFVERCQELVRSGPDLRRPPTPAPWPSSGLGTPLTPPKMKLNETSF
UniProt O43396: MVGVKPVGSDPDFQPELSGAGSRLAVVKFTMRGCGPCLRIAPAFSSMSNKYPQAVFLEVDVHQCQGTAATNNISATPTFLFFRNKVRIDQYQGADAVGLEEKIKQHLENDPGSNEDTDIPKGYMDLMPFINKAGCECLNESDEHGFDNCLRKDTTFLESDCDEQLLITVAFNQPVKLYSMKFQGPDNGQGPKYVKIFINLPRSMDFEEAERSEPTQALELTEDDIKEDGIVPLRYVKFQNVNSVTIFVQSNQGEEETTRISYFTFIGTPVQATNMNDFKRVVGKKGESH
UniProt O60294: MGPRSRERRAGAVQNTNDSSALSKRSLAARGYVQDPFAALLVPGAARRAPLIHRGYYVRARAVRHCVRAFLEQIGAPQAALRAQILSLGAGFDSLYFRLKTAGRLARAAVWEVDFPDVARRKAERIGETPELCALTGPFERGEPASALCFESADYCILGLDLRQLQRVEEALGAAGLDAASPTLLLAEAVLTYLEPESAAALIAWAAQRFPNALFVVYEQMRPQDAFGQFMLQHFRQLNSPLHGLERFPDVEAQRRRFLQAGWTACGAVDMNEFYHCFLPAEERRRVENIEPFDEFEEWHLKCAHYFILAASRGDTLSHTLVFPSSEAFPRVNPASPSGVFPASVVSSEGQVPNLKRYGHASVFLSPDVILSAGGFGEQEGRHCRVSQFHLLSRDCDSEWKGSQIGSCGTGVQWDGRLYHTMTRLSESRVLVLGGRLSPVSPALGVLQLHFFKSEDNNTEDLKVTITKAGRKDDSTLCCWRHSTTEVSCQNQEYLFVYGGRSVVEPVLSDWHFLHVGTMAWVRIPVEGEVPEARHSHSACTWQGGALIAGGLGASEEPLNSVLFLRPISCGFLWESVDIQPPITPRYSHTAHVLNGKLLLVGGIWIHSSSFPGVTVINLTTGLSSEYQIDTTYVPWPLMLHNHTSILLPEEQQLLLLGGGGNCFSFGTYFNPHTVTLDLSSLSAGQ
UniProt O15254: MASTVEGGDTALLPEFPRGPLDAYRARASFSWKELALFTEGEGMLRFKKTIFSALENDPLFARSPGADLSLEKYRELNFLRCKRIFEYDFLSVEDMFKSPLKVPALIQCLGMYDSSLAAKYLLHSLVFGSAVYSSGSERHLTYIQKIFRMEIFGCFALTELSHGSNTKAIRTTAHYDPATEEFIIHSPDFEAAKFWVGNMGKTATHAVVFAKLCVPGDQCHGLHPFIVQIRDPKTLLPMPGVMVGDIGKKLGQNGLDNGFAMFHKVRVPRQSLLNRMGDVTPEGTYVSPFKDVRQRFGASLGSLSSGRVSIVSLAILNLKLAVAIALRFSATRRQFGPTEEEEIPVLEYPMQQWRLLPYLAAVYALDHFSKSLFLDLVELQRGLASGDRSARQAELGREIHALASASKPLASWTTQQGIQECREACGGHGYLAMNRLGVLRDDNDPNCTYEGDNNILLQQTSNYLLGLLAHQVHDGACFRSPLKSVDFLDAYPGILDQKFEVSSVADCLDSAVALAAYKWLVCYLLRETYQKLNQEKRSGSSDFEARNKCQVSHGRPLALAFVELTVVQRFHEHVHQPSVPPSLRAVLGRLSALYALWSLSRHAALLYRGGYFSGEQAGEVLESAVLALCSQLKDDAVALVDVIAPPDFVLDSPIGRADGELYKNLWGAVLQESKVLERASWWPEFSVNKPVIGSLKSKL
UniProt O00483, whole entry: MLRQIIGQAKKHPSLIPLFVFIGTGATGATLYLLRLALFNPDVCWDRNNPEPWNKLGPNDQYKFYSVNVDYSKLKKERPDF
UniProt O14818: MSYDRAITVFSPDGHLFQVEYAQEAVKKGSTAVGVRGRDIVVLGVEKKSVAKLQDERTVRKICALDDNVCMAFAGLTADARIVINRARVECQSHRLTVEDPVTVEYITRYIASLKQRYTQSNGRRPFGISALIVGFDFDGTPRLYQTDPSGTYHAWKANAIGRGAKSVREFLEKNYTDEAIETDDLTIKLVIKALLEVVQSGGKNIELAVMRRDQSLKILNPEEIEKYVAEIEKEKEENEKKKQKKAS
UniProt O43586: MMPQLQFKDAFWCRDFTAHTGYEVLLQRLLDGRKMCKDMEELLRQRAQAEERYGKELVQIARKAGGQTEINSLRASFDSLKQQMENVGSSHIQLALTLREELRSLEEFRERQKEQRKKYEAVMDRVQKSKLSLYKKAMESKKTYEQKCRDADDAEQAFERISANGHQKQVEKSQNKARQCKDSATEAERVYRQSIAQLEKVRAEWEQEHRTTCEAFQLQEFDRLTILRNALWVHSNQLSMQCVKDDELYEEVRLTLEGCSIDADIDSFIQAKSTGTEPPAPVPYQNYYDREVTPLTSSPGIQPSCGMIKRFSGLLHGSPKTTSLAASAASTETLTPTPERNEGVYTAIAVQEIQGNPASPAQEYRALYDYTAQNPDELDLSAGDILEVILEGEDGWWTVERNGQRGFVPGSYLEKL
UniProt O43296: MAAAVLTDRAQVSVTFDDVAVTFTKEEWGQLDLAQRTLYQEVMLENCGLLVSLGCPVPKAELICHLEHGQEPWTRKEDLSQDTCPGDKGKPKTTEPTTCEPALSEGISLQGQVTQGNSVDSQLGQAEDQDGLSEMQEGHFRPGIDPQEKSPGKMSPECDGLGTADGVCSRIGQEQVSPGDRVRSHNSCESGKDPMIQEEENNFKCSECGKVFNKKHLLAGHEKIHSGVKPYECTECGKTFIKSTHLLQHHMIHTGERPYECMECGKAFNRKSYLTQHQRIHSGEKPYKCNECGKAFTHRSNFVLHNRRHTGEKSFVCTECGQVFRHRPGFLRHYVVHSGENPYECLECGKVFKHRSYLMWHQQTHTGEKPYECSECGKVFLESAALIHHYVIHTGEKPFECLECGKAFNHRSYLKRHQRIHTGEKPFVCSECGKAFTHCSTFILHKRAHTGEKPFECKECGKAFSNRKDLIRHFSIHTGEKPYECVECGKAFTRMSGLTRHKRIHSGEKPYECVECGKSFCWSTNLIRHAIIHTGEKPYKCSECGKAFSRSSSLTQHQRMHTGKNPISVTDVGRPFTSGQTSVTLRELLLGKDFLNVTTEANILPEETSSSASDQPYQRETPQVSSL
UniProt O14647: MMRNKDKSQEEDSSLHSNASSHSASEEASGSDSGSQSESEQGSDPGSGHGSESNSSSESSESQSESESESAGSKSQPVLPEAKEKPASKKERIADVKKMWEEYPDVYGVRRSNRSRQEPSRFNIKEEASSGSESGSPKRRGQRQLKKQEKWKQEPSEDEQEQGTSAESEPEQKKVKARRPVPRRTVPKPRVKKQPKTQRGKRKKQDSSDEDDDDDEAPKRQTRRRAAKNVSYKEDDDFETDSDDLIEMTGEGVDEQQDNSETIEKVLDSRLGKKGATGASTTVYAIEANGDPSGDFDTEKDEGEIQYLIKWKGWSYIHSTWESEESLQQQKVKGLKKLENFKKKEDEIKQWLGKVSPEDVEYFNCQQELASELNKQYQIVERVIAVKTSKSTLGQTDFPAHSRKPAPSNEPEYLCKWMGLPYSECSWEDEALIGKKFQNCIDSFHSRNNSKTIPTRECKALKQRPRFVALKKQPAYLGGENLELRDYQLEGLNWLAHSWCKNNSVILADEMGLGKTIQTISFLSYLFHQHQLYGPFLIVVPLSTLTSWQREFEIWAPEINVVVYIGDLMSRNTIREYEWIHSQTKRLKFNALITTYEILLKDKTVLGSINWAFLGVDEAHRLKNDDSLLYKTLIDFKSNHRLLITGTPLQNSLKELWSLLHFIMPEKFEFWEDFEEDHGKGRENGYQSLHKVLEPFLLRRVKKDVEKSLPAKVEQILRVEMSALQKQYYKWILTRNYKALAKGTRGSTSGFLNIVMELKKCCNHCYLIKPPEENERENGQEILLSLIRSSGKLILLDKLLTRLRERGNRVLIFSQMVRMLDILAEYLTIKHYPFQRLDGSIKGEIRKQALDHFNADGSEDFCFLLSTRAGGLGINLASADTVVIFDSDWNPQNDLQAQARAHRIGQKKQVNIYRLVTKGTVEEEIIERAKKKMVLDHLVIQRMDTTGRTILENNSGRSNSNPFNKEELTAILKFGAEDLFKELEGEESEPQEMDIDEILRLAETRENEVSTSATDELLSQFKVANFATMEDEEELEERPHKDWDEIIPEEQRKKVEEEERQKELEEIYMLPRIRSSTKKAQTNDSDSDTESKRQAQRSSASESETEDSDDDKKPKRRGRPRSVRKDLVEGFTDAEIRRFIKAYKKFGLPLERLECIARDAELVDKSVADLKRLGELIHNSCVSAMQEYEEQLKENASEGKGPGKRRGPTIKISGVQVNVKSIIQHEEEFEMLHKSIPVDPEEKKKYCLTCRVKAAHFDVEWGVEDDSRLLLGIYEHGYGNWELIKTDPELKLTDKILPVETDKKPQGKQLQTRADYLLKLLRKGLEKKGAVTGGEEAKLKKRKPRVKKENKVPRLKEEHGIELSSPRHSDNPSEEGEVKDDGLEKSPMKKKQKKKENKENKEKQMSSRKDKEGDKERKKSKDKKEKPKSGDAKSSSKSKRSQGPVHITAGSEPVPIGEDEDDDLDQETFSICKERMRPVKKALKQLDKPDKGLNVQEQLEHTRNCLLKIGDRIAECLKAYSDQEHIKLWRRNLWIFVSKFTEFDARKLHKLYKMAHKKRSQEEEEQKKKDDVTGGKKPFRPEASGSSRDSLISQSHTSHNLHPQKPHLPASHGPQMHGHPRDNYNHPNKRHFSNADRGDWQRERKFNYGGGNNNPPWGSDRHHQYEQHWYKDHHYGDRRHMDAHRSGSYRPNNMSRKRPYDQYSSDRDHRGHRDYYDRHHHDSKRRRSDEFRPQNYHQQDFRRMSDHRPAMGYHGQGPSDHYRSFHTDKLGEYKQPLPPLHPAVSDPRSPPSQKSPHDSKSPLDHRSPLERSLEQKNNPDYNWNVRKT
UniProt O43148, whole entry: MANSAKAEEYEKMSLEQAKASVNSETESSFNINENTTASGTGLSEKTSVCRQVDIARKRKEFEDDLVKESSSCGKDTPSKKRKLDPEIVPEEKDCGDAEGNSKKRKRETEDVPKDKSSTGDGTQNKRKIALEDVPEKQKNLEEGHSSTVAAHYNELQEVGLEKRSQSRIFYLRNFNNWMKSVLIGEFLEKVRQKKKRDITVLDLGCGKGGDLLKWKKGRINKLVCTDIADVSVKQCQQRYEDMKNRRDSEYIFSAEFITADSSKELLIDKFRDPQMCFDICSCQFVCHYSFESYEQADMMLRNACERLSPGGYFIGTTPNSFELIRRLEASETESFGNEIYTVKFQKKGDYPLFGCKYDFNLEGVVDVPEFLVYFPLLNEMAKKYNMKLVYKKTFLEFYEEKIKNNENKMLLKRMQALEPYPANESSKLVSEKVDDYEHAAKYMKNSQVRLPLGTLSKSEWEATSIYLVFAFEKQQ
UniProt O00330, whole entry: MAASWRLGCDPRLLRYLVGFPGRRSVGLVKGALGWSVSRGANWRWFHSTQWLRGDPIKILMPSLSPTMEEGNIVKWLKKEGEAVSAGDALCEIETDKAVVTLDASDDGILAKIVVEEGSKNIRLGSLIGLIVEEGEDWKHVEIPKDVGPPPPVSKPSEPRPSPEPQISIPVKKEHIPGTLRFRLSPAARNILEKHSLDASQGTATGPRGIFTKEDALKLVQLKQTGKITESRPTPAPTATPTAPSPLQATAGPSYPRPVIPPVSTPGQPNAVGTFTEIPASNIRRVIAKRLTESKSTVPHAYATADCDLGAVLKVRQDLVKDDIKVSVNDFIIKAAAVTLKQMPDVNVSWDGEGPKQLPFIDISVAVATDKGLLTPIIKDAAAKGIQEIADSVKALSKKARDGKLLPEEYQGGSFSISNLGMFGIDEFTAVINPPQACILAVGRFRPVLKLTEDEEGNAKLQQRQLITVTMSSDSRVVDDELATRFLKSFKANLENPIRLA

Compound: Nc1ncnc2c1ncn2[C@@H]1O[C@H](COP(=O)(O)OP(=O)(O)OP(=O)(O)O)[C@@H](O)[C@H]1O [adenosine triphosphate]
Experiment: NP40-soluble protein abundance relative to vehicle (solubility fold change) (ratio); higher = more soluble protein in presence of ATP
Method in brief: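 In three independent experiments, Jurkat crude lysate made by Dounce homogenisation was treated for 10 min at room temperature and then 3 min at 37 °C with eight concentrations ranging from 0.1 to 10 mM. It was then solubilised with 0.8% NP40 plus benzonase for 60 min at 4 °C and ultracentrifuged. The supernatant was TMT-labelled for LC-MS/MS, and each value is the fold change against the detergent-processed vehicle for the same replicate, using vsn-normalised intensities.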

Target | NP40-soluble protein abundance (concentration: 0.1mM) | NP40-soluble protein abundance (concentration: 0.5mM)
UniProt O43427 and related entries | 1.1 ± 0.078 | 1.07 ± 0.098
M0R2P6 and related entries (UniProt Q8TBC3) | 1.13 ± 0.24 | 1.02 ± 0.014
TXNL1 (UniProt O43396) | 1.02 ± 0.034 | 1.03 ± 0.043
SCD (UniProt O00767) | 0.96 ± 0.04 | 0.947 ± 0.018
POLR3A (UniProt O14802) | 1.02 ± 0.013 | 1.03 ± 0.02
TRAF5 (UniProt O00463) | 1.05 ± 0.074 | 1.06 ± 0.082
LCMT2 (UniProt O60294) | 1.05 ± 0.062 | 0.929 ± 0.094
MED14 (UniProt O60244) | 0.976 ± 0.024 | 1 ± 0.044
PSMD3 (UniProt O43242) | 0.958 ± 0.031 | 0.927 ± 0.021
ACOX3 (UniProt O15254) | 1.06 ± 0.04 | 1.03 ± 0.066
NDUFA4 (UniProt O00483) | 0.902 ± 0.076 | 0.915 ± 0.095
PSMA7 (UniProt O14818) | 0.955 ± 0.038 | 0.949 ± 0.042
UniProt O43586 and related entries | 1.12 ± 0.051 | 1.09 ± 0.1
CLIC1 (UniProt O00299) | 0.959 ± 0.08 | 0.894 ± 0.09
UniProt O43929 | 1.07 ± 0.089 | 1.05 ± 0.11
DEGS1 (UniProt O15121) | 1.1 ± 0.045 | 1.04 ± 0.013
UniProt O43296 | 1.01 ± 0.062 | 0.957 ± 0.039
CHD2 (UniProt O14647) | 1.03 ± 0.055 | 1.06 ± 0.11
UniProt O14828 and related entries | 0.979 ± 0.051 | 1 ± 0.042
UniProt O43148 and related entries | 1.02 ± 0.061 | 1.04 ± 0.084
UniProt O00330 and related entries | 1.02 ± 0.15 | 1.13 ± 0.19
M0QZR4 (UniProt Q92888) | 1.02 ± 0.029 | 1.03 ± 0.035

Copied from the list:
Value for UniProt O43296 under NP40-soluble protein abundance (concentration: 0.5mM): 0.957 ± 0.039
Value for LCMT2 (UniProt O60294) under NP40-soluble protein abundance (concentration: 0.1mM): 1.05 ± 0.062
